No constants are given. Whether binding was seen depends on the method and setting. In cells and extracts the contact can be indirect. Some entries that bind do so weakly or less than the wild type.

Amino acid sequences for entries named in this document (tags omitted). Residues count along the entry.
UniProt Q03431, residues 27-593: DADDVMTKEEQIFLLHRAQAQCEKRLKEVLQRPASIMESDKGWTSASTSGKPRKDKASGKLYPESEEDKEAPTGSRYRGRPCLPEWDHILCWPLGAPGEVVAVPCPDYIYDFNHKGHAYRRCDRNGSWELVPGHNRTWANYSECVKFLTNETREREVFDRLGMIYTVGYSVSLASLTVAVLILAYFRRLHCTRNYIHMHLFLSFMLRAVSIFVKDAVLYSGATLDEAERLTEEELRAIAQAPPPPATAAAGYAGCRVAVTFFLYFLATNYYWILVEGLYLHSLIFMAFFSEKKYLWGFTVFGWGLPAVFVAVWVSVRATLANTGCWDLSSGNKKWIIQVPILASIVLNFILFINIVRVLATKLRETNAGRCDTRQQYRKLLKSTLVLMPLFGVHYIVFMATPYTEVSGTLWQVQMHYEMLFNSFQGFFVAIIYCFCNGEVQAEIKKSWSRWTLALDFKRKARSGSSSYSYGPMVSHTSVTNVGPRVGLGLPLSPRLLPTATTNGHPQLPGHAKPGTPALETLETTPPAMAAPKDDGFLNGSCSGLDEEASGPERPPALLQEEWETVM
UniProt P32121: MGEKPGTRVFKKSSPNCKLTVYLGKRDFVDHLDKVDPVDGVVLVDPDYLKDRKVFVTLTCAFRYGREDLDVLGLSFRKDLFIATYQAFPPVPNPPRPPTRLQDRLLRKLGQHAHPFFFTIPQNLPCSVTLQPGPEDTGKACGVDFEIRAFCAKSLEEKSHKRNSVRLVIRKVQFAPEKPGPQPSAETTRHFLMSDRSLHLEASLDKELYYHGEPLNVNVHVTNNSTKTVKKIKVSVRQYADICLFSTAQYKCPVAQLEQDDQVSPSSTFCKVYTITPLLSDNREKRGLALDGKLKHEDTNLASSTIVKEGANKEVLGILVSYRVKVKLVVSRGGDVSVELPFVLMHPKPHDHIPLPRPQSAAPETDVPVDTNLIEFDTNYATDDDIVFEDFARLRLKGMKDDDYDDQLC

In the test the target is PTH1R-LgBiT (pBiT vector, β-arrestin recruitment assay) (human) (UniProt Q03431). In words: split reporter.

For the substance “SmBiT-β-arrestin2 (from UniProt P32121 1-409)”, the binding entry is on record as “binds”.

For the origin of these results see doi:10.1101/2023.06.08.544171.
